Data on 54 compounds can be found in PubChem BioAssay AID1487 (National Center for Advancing Translational Sciences (NCATS), 2009).

What is called AC50 is the midpoint of the concentration-response curve, whichever way the signal moves.

“And” between values parts separate entries of the source, which are not always exact repeats. Equal values may be shown once. The list shows a part of the results. Shown are side measurements of this screen, not its main read-out; they come without a call. The list favours compounds with an active or inconclusive main result. The note in brackets gives the kind of curve behind each potency; many fits are weak.

The experiment can be described thus: qHTS Assay for Modulators of Lamin A Splicing. The conditions noted are these: HeLa LMNA splicing GFP/RFP minigene ratio, 48 h. A digest of the protocol:
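Read-out is the ratio of GFP to DsRed2 object intensity, acquired by 488 nm laser-scanning cytometry on HeLa lamin A-EGFP minigene reporter cells. Compound incubation 48 hrs at 37 °C in Opti-MEM with 2% FBS; DMSO 0.5% final.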
A general note: qHTS replaces the single test concentration by a dilution series.

Setting [1] is: measured here: GFP splicing reporter channel.
The mark [2] stands for this setting: measured here: RFP viability control channel.

On to `C=CS(=O)(=O)c1ccc(Oc2ccc(S(=O)(=O)C=C)cc2)cc1`, for which the AC50 by setting is: under setting [1], 31.6 µM [falling, single point]; under setting [2], 31.6 µM [falling, single point].
For `O=C1c2cccc(OCC(=O)N3CCCc4ccccc43)c2CCN1Cc1ccc(Br)cc1`, under setting [2], the concentration at half-maximal activity (AC50) is 35.5 µM [rising, single point].
Consider `O=C(NCc1cccs1)c1noc2c1CCCC2`, for which the half-maximal activity concentration (AC50) is, setting by setting: under setting [1], 35.5 µM [rising, single point]; under setting [2], 35.5 µM [rising, single point].
In the case of `Cc1[nH]c2ccccc2c1C(=O)COC(=O)Cn1c(C(F)(F)F)nc2ccccc21`, the half-maximal activity concentration (AC50) is 0.891 µM [rising, full curve, poor fit] under setting [1] and 0.447 µM [rising, full curve] under setting [2].
In the case of `C=CCOc1ccccc1OC[C@H](O)CNC(C)C`, the AC50 under setting [1] is 0.398 µM [falling, partial curve, poor fit].
With `Cc1ccc(SCCNC(=S)Nc2cc(C)ccc2C)cc1`, the concentration at half-maximal activity (AC50) under setting [1] was 35.5 µM [rising, single point] and the concentration at half-maximal activity (AC50) under setting [2] is 35.5 µM [rising, single point].
As for `Oc1ccc(Br)cc1-c1cc(-c2ccc(Cl)cc2)n[nH]1`, the AC50 is 3.55 µM [falling, partial curve] under setting [1] and 5.62 µM [falling, single point] under setting [2].
Consider `Cc1cccc(NS(=O)(=O)c2ccc(C3CCCCC3)cc2)n1`, for which the concentration at half-maximal activity (AC50) is, setting by setting: under setting [1], 11.2 µM [rising, single point]; under setting [2], 14.1 µM [rising, single point].
As to `COc1cccc2cc(-c3csc(CCn4nc(C)cc4C)n3)c(=O)oc12`, the concentration at half-maximal activity (AC50) under setting [2] was 22.4 µM [rising, partial curve, poor fit].
Take `COc1ccc(C(=O)CSc2nnc(CNc3nc(-c4ccccc4)cs3)n2C)cc1`: the AC50 runs as follows: under setting [1], 15.8 µM [rising, single point]; under setting [2], 35.5 µM [rising, single point].
`O=C(CSc1ccccn1)N1CCN(c2cccc(Cl)c2)CC1`: the concentration at half-maximal activity (AC50) under setting [2] was 31.6 µM [rising, single point].
In the case of `COc1cc(S(=O)(=O)N(Cc2ccc(C)cc2)C2CCCCC2)ccc1-n1cnnn1`, the AC50 by setting is: under setting [1], 14.1 µM [rising, partial curve, poor fit]; under setting [2], 15.8 µM [rising, single point].
Turning to `Oc1c(C=C2N=c3ccccc3=N2)sc(=S)n1-c1ccc(F)cc1`, the half-maximal activity concentration (AC50) is 3.98 µM [rising, full curve, poor fit] under setting [1]; 31.6 µM [falling, single point] and 12.6 µM [rising, partial curve] under setting [2].
Consider `Oc1[nH]c2ccccc2c1C=Nc1ccc2c(c1)OCCO2`, for which, under setting [2], the AC50 was 14.1 µM [rising, partial curve].
The same measure, in the same setting: under `CCc1nnc(NC(=O)[C@@H](NC(=O)c2cccc(S(=O)(=O)N3CCOCC3)c2)C(C)C)s1` stands 5.62 µM [falling, single point].
For `O=C1OC(c2cccs2)=N/C1=C/c1ccc(-c2cccc(C(=O)O)c2)o1`, under setting [2], the AC50 was 31.6 µM [rising, single point].
`Cc1ccc(N=Nc2c(N)[nH]n3c(=O)cc(C)nc23)cc1`: the half-maximal activity concentration (AC50) by setting is: under setting [1], 35.5 µM [rising, single point]; under setting [2], 35.5 µM [rising, single point].
As to `O=C(c1cc2c(s1)CCCC2)N1CCN(Cc2ccc3c(c2)OCO3)CC1`, the AC50 reads like this: under setting [1], 10 µM [rising, partial curve]; under setting [2], 28.2 µM [rising, single point].
Take `CCOc1ccc(CC(=O)NNC(=S)NCCc2ccccc2)cc1`: the AC50 under setting [2] was 0.891 µM [falling, partial curve, poor fit].
On to `CCCN1C(=O)/C(=C\c2ccncc2)SC1=Nc1ccccc1`, for which the concentration at half-maximal activity (AC50) was 35.5 µM [rising, single point] under setting [1] and 31.6 µM [rising, single point] under setting [2].
Regarding `C=CCn1c(NCCc2ccccc2)nc2c1c(=O)n(C)c(=O)n2C`, the concentration at half-maximal activity (AC50) reads like this: under setting [1], 15.8 µM [rising, partial curve]; under setting [2], 11.2 µM [rising, partial curve].
For `Cc1ccc2nc3c(c(N)c2c1)CCN3c1ccccc1`, the AC50 under setting [2] was 11.2 µM [rising, single point].
With `COc1ccc(C(=O)Oc2cccc(Nc3ncnc4ccccc34)c2)cc1OC`, the AC50 under setting [1] was 12.6 µM [rising, partial curve] and the half-maximal activity concentration (AC50) under setting [2] is 15.8 µM [rising, partial curve].
With `Cc1c(C)n2c3c(cccc13)CC2`, the half-maximal activity concentration (AC50) is 0.0251 µM [rising, full curve, poor fit] under setting [1] and 0.0282 µM [rising, full curve, poor fit] under setting [2].
Consider `COc1cc(/C=N/NC(=S)Nc2cccc(S(=O)(=O)N(C)C)c2)cc(OC)c1O`, for which the AC50 under setting [2] is 11.2 µM [rising, partial curve].
As to `COc1cc(-c2nc(-c3ccccc3)c(-c3cccs3)[nH]2)cc(OC)c1OC`, the AC50 under setting [2] is 20 µM [rising, single point].
Take `CN(C)/C=N/c1c(C#N)cnn1-c1ncnc2sc(-c3ccccc3)cc12`: the AC50 under setting [2] is 25.1 µM [rising, single point].
`Cc1onc(-c2ccccc2)c1C(=O)NNC(=S)NC(=O)/C=C/c1ccccc1`: the AC50 under setting [2] was 5.62 µM [rising, partial curve, poor fit].
For `CN(C)S(=O)(=O)c1ccc2c(c1)nc(CCC(=O)Nc1ccc3c(c1)OCO3)n2C`, the AC50 is, setting by setting: under setting [1], 10 µM [rising, single point]; under setting [2], 12.6 µM [rising, single point].
`Cc1cccc2sc(N(Cc3cccnc3)C(=O)c3cccs3)nc12`: under setting [1], the concentration at half-maximal activity (AC50) is 7.08 µM [falling, partial curve, poor fit].
With `O=C(N/N=C/c1c(O)n(-c2ccccc2Cl)c(=O)c2ccccc12)C1COc2ccccc2O1` (configuration not stated), under setting [2], the concentration at half-maximal activity (AC50) is 25.1 µM [rising, single point].
Turning to `CCOc1cc2[nH]c(=O)n(CCCCC(=O)N3CCN(c4cccc(Cl)c4)CC3)c(=O)c2cc1OCC`, the AC50 under setting [1] is 25.1 µM [falling, single point].
With `Cc1ccccc1C(=O)NC(=S)Nc1ccccc1[N+](=O)[O-]`, the half-maximal activity concentration (AC50) under setting [2] is 10 µM [rising, partial curve, poor fit].
For `CCOc1cc(S(=O)(=O)NCc2ccncc2)ccc1Cl`, the half-maximal activity concentration (AC50) under setting [1] is 0.398 µM [falling, full curve, poor fit].
Regarding `COC(=O)c1ccc(NC(=O)CN2C(=O)CCc3cc(S(=O)(=O)N4CCCCC4)ccc32)cc1`, the AC50 under setting [2] is 17.8 µM [rising, partial curve, poor fit].
On to `COCCCNc1nc(-c2ccncc2)nc2ccccc12`, for which, under setting [1], the AC50 is 2.82 µM [falling, partial curve, poor fit].
As for `O=C(NCCSCc1c(F)cccc1Cl)c1ccc(CN2CCOCC2)cc1`, the AC50 under setting [1] was 15.8 µM [rising, single point] and the AC50 under setting [2] was 31.6 µM [rising, single point].
`COc1cccc(/C=N/NC(=O)c2[nH]c(C)c(C(=O)N/N=C/c3cccc(OC)c3)c2C)c1`: under setting [2], the AC50 is 12.6 µM [rising, partial curve].
In the case of `Cc1cccc(Nc2nnc(SCC3CCCCO3)s2)c1` (configuration not stated), under setting [2], the AC50 was 35.5 µM [rising, single point].
Regarding `CC(C)CNC(=O)CSc1nnc(-c2ccccn2)n1Cc1ccccc1`, the half-maximal activity concentration (AC50) under setting [1] was 8.91 µM [rising, partial curve, poor fit].
Turning to `OC(CNC1CCCC1)COc1ccc(-c2ccccc2)cc1` (configuration not stated), the half-maximal activity concentration (AC50) under setting [2] is 35.5 µM [falling, single point].
Turning to `CCN(CC)S(=O)(=O)c1ccc(Cl)c(C(=O)Nc2ccc(Cl)cc2[N+](=O)[O-])c1`, the half-maximal activity concentration (AC50) was 3.98 µM [rising, full curve, poor fit] under setting [1] and 6.31 µM [rising, partial curve] under setting [2].
As for `Cc1[nH]c(=O)[nH]c(=O)c1S(=O)(=O)N1CCN(c2ccccc2Cl)CC1`, the AC50 is, setting by setting: under setting [1], 14.1 µM [rising, partial curve, poor fit]; under setting [2], 12.6 µM [rising, partial curve].
Regarding `CCOC(=O)c1cc(-c2ccccc2)n(CCCC(=O)Nc2cccc(C)c2C)c1C`, the half-maximal activity concentration (AC50) under setting [2] is 10 µM [falling, partial curve, poor fit].
Take `O=C(O)C1C2C=CC(C2)C1C(=O)OCC1CCCO1` (configuration not stated): the concentration at half-maximal activity (AC50) under setting [2] was 35.5 µM [falling, partial curve, poor fit].
The same measure, in the same setting: in the case of `C=CCSc1nc2sc(C)c(C)c2c(=O)n1CC=C` it was 12.6 µM [rising, single point].
For the compound `Cc1cc(Oc2ccccc2)nc(SCC(=O)Nc2ccc(Cl)cc2Cl)n1`, the AC50 is, setting by setting: under setting [1], 22.4 µM [rising, single point]; under setting [2], 22.4 µM [rising, single point].
Take `Cc1nc(-n2nnc3ccccc32)c2c3c(sc2n1)CCCC3`: the AC50 reads like this: under setting [1], 35.5 µM [rising, single point]; under setting [2], 35.5 µM [rising, single point].
As for `Cc1cccc(-n2cc(-c3ccccc3)c3c(NC4CCCC4)ncnc32)c1`, the AC50 under setting [1] is 20 µM [falling, single point].
In the case of `CCOC(=O)c1c(NC(=O)c2ccc(S(=O)(=O)N3CCC(C)CC3)cc2)sc2c1CCN(CC)C2`, the AC50 was 35.5 µM [falling, single point] under setting [1] and 35.5 µM [falling, single point] under setting [2].
In the case of `Cc1cc(NC(=O)CSc2nc(C3CCCCC3)nc3ccccc23)no1`, the AC50 under setting [1] is 6.31 µM [falling, single point].
Same read-out and setting: in the case of `CCOC(=O)c1ccc(NC(=O)CCC(=O)N2Cc3ccccc3Oc3ncccc32)cc1` it was 5.62 µM [falling, single point].
Consider `CCC(=O)N1CCN(c2ccc(NC(=O)c3cc4ccccc4o3)cc2Cl)CC1`, for which the AC50 under setting [1] is 25.1 µM [falling, single point] and the AC50 under setting [2] was 35.5 µM [falling, single point].
As to `CCOc1ccccc1NC(=O)/C=C/c1ccccc1[N+](=O)[O-]`, under setting [2], the half-maximal activity concentration (AC50) was 0.0794 µM [rising, full curve, poor fit].
